From PubChem BioAssay AID2685 (National Center for Advancing Translational Sciences (NCATS), 2010)
The list shows a part of the results. Shown are side measurements of this screen, not its main read-out; they come without a call. Compounds called inactive in the main read-out are mostly missing here. The note in brackets gives the kind of curve behind each potency; many fits are weak. Where a SMILES comes first, the peptide text is derived from it. The star is where a group is joined. Boc = CC(C)(C)OC(=O)*; Bn = c1ccc(C*)cc1

Assay: qHTS Assay for Lipid Storage Modulators in Drosophila S3 Cells;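 on cell number change: cells counted by Cell Tracker Red CMTPX staining in the red channel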
Conditions: BODIPY lipid droplet fluorescence, 18-24 h; for cell number change: measured here: cell count max response, cells fed with added oleic acid
Summary of the method: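 Drosophila S3 cells got compounds at several concentrations plus oleic acid (400 uM solution). Laser-scanning cytometry with 488 nm excitation read lipid droplets at 500-530 nm and cells at 575-640 nm. Percent activity was relative to 20 uM Triacsin C.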

[1] = measured here: cell number channel AC50, cells fed with added oleic acid
[2] = measured here: lipid fluorescence (Fed channel) AC50, cells fed with added oleic acid

Row | Structure (SMILES) | AC50 [1] | AC50 [2] | cell number change
1 | Cc1ccccc1NC(=S)N(Cc1ccccc1)Cc1cccnc1 | 5.17 µM [rising, partial curve] | – | –
2 | CC(C)(C)c1ccc(C(=O)NCCC(=O)N2CCN(c3ncccn3)CC2)cc1 | – | 0.731 µM [falling, full curve] | –
3 | COc1ccccc1NC(=O)C1CCCN(S(=O)(=O)c2ccccc2)C1 (stereo not given) | – | 4.11 µM [falling, full curve] | –
4 | CC(C)CC(NC(=O)C(NC(=O)C(Cc1ccc(OCc2ccccc2)cc1)NC(=O)OC(C)(C)C)C(C)C)C(N)=O (stereo not drawn) (Boc-Tyr(Bn)-Val-Leu-NH2; configuration not given here) | 29.1 µM [falling, single point] | 16.4 µM [falling, single point] | -34.1%
5 | C[C@]12CCC(=O)C=C1C=C[C@@H]1[C@@H]2CC[C@@]2(C)[C@H]1CC[C@@]21CCC(=O)O1 | – | 18.4 µM [rising, single point] | 12.8%
6 | C/C(N)=C(/C#N)C(=O)COc1ccc(Cl)cc1Cl | 29.1 µM [falling, single point] | – | -36.5%
7 | COCCN1CCc2c(C)nc3c(-c4ccc(OC)c(OC)c4)cnn3c21 | – | 29.1 µM [falling, single point] | -14.9%
8 | COc1ccc(CN(Cc2nc3ccccc3c(=O)[nH]2)C(=O)c2ccco2)cc1 | – | – | -2.1%
9 | O=C(c1ccc2c(=O)n(CCc3ccccc3)c(=O)[nH]c2c1)N1CCN(c2ccccc2)CC1 | – | – | 3.42%
10 | COc1ccc(OC)c(/C=C/C(=O)OCC(=O)c2c(N)n(C)c(=O)n(C)c2=O)c1 | 1.84 µM [falling, single point] | 6.51 µM [falling, partial curve, poor fit] | 95.5%
11 | COC(=O)c1ccc(C(=O)OC)c(NC(=S)N2CCOCC2)c1 | – | 29.1 µM [falling, single point] | –
12 | CCCCNC(=O)CCNS(=O)(=O)c1ccc(C)cc1 | – | 0.0291 µM [falling, full curve, poor fit] | 17.7%
13 | Cc1cccc(C(=O)NCCCNC(=O)c2ccccn2)c1 | – | 5.17 µM [falling, single point] | 1.28%
14 | COc1cc(C(=O)NCCC(=O)NC2CCCCC2)cc(OC)c1OC | 29.1 µM [rising, single point] | – | 47.9%
15 | CN(C)/C=N/c1nc2nccc(-c3ccc(Cl)cc3)n2n1 | 11.6 µM [falling, partial curve, poor fit] | 29.1 µM [falling, single point] | -66.1%
16 | Cc1ccc(NC(=O)C2CC2C)c(Cl)c1 (stereo not given) | – | 2.06 µM [falling, partial curve] | –
17 | COCCNC(=O)CC(NS(=O)(=O)c1ccc(C)cc1)c1ccco1 (stereo not given) | – | 0.92 µM [falling, partial curve] | -26.2%
18 | CCOc1cc(C2C(C(=O)OC(C)C)=C(C)N=C3SCCC(=O)N32)ccc1OC(C)=O (stereo not given) | 1.84 µM [rising, partial curve, poor fit] | – | –
19 | CCOC(=O)[C@H]1[C@H]2COc3ccc(Cl)cc3[C@@H]2N2C(=O)CN(Cc3ccc(OC)cc3)C(=O)[C@@]12C | – | 18.4 µM [falling, single point] | -10.8%
20 | C=CCNc1nc2ccccc2nc1NS(=O)(=O)c1cccs1 | 1.46 µM [rising, full curve] | 0.58 µM [rising, single point] | 33.3%

Row | Structure (SMILES) | AC50 [1] | AC50 [2] | cell number change
21 | CCn1cc([N+](=O)[O-])c(C(=O)N2CCCC2)n1 | – | 20.6 µM [falling, partial curve] | –
22 | CCn1nc(C)c(NS(=O)(=O)c2ccccc2)c1C | 6.51 µM [falling, single point] | 5.8 µM [falling, single point] | –
23 | COc1ccccc1OCc1ccc(C(=O)N/N=C/c2ccco2)cc1 | – | 2.91 µM [rising, single point] | –
24 | Cc1ccc(NC(=O)C2CCN(S(=O)(=O)c3ccccc3)CC2)cc1 | – | 8.2 µM [falling, partial curve] | -23.8%
25 | CCCCC(=O)Nc1nn(C)c2nc3c(C)cccc3cc12 | – | 10.3 µM [falling, partial curve] | -27.4%
26 | O=C(CCc1ccccc1)NNc1ccc(F)cc1 | 6.51 µM [falling, single point] | 6.51 µM [falling, single point] | -2.91%
27 | CCCn1cnc2cc(NCc3ccccn3)ccc21 | – | – | 16.1%
28 | S=C(NCc1ccccn1)Nc1ccccc1Cl | – | 29.1 µM [rising, single point] | -12%
29 | Brc1cccc(-c2nnc3n2CCC3)c1 | 0.0731 µM [rising, partial curve] | 0.00517 µM [rising, full curve, poor fit] | –
30 | CCCN1CC(O)=C(C#N)C1=O | – | 4.61 µM [falling, full curve] | -21.9%
31 | Cc1cccc(NC(=S)NCc2ccco2)c1C | 6.51 µM [rising, single point] | 6.51 µM [rising, partial curve] | –
32 | COC(=O)C1(C)Nc2ccccc2C(=O)N1c1ccccc1C (stereo not given) | – | 6.51 µM [falling, single point] | -22.1%
33 | CCOC(=O)CSc1nc(N)c(C#N)c(-c2cccs2)c1C#N | – | 0.731 µM [falling, full curve, poor fit] | -18.5%
34 | O=C(c1ccc2c(c1)N(Cc1ccccc1)C(=O)CS2)N1CCOCC1 | – | 4.11 µM [falling, partial curve] | –
35 | COc1ccc(/C(O)=C2/C(=O)C(=O)N(CCCN(C)C)C2c2ccccc2)cc1Cl (stereo not given) | – | 0.206 µM [falling, full curve] | –
36 | CSc1nnc(SCC2=NNC(=O)SC2)s1 | – | 32.6 µM [falling, single point] | -14.4%
37 | Cc1cc(NS(=O)(=O)c2ccc(NC(=S)NC(=O)c3ccncc3)cc2)no1 | 0.461 µM [rising, partial curve] | – | 5.34%
38 | Cc1cc(NC(=O)CN2CCCC2c2nc3ccccc3s2)no1 (stereo not given) | 0.00517 µM [falling, full curve, poor fit] | – | -32.4%
39 | CCOC(=O)N1CCC(NC(=O)c2cc(C(=O)Nc3ccc(OC)c(OC)c3)ccc2CO)CC1 | – | 2.59 µM [falling, full curve, poor fit] | -30%
40 | COc1cc(NC(=O)C2CC(c3ccccc3O)=NO2)c(OC)cc1Cl (stereo not given) | 16.4 µM [falling, partial curve, poor fit] | 5.17 µM [falling, full curve] | -32.8%

Row | Structure (SMILES) | AC50 [1] | AC50 [2] | cell number change
41 | CCN(CC)S(=O)(=O)c1cc(NS(=O)(=O)c2cccc(Cl)c2)ccc1C | – | 6.51 µM [falling, partial curve, poor fit] | –
42 | COc1ccc(-c2nc3c(Br)c(N)c(Br)cc3o2)cc1 | 23.1 µM [falling, single point] | 23.1 µM [falling, single point] | -35.8%
43 | CN(CC(=O)Nc1ccccc1Br)CC(=O)NC(c1ccccc1)c1ccccc1 | – | 2.91 µM [rising, partial curve] | 29.8%
44 | CC(C)(C)c1ccc(OCC(=O)N2CCN(c3ncccn3)CC2)cc1 | 0.00461 µM [rising, full curve, poor fit] | – | 16.5%
45 | O=C(NCC(=O)N(c1ccc(F)cc1)C(C(=O)NC1CCCCC1)c1ccncc1)c1ccco1 (stereo not given) | – | – | 9.24%
46 | Cc1cc(CSc2ccccc2)ccc1NC(=O)c1ccc(Br)cc1 | – | 5.17 µM [rising, full curve, poor fit] | 1.11%
47 | COc1ccc(C(=O)N(C)Cc2ccc(C)o2)cc1OC1CCN(C(C)=O)CC1 | – | 29.1 µM [falling, single point] | -3.47%
48 | CSc1ccc(CCNC(=O)CS(=O)(=O)Cc2nc(-c3ccccc3F)oc2C)cc1 | – | 18.4 µM [falling, single point] | 21.8%
49 | O=C1C(Cl)=C(NCCc2ccccc2)C(=O)N1CCc1ccccc1 | 0.092 µM [rising, full curve, poor fit] | 0.517 µM [rising, full curve] | 55.5%
50 | COC(=O)C1=C(C)N(C(C)c2ccccc2)C(=O)/C1=C\c1ccco1 (stereo not given) | 6.51 µM [rising, partial curve, poor fit] | – | –
51 | Cc1ccc(NC(=O)COC(=O)CNC(=O)c2ccc3ccccc3c2)c([N+](=O)[O-])c1 | – | – | 16.8%
52 | Cc1ccc(OCC(=O)N/N=C/c2cn[nH]c2-c2ccc(Cl)c(Cl)c2)cc1 | – | 20.6 µM [falling, partial curve] | -29.7%
53 | CCn1nnnc1SCC(=O)c1cc(OC)ccc1OC | – | 1.3 µM [rising, full curve] | 0.291%
54 | O=C(OCC(=O)c1c[nH]c2ccccc12)c1cc2ccccc2cc1O | 0.231 µM [falling, full curve, poor fit] | 6.51 µM [rising, single point] | -4.6%
55 | Cc1oc(CSCC2CCCO2)cc1C(=O)O (stereo not given) | – | – | 9.59%
56 | COCCCN1C(=O)c2ccccc2C1C(=O)NC1CCCCCC1 (stereo not given) | – | – | 16.1%
57 | COc1ccc(C(=O)Nc2nnc(-c3ccc(F)cc3)s2)c(OC)c1 | – | – | 12.5%
58 | COCCCNC(=O)c1ccc(N(C)S(C)(=O)=O)cc1 | – | 20.6 µM [falling, single point] | -6.54%
59 | CCCCN(CCCC)CP(=O)(c1ccccc1)c1ccccc1 | 18.4 µM [rising, partial curve] | – | 92.5%
60 | O=c1oc2ccccc2nc1/C=C(O)/C=C\c1ccccc1 | 32.6 µM [falling, partial curve, poor fit] | 0.092 µM [falling, full curve, poor fit] | -66.3%
